Results are percentages, as filed.
The record does not define 0% and 100%; most values in the screen are far below 50% and negative numbers occur (in some assays of this library far below -100).
This is an unselected part of the compounds tested.

Sequences of proteins named here, by UniProt entry; tags and fusion partners are left off.
UniProt E9BF75, entry or part of it: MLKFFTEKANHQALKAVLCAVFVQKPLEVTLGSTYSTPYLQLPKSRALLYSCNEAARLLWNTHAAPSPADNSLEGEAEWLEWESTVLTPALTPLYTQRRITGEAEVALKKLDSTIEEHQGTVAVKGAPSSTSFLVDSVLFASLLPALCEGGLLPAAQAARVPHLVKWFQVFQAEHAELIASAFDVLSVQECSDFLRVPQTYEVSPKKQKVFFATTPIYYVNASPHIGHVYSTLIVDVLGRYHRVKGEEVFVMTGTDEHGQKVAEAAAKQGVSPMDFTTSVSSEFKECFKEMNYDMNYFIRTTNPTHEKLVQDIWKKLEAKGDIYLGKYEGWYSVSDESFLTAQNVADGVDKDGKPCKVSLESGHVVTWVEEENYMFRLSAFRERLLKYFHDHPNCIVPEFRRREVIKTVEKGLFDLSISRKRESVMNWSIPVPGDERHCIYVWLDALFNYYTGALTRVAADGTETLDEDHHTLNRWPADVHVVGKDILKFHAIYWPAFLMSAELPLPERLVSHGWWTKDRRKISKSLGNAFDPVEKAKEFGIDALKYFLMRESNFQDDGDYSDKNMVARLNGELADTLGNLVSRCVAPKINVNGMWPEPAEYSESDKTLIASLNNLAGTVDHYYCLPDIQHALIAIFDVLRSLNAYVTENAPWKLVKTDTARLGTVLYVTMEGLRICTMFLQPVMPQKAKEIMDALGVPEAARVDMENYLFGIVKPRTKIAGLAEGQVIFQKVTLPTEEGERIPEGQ

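Methionyl-tRNA synthetase (putative), Leishmania donovani (UniProt E9BF75). Primary screen of methionyl-tRNA synthetase; the read-out is not stated. The test concentration is not given. The values are filed as inhibition. Of about 68,000 compounds tested this way, about 24 (0.035%) reached 50% or more in at least one test.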

CC(=O)N(C)CC(=O)NC1(c2ccc(Cl)c(Cl)c2)CC1 read 16.19%. With COc1cc(C(=O)N(C2CC2)C2CC(=O)NC2=O)ccc1C (centres unmarked) the screen gave 8.92%. Result for O=C(c1cnccn1)N1CCN(c2ccnc3ccsc23)CC1 was 5.686%. COCC(=O)N1CCC(=O)N(C2CCCC2)Cc2ccccc21 gave 1.37%.

For C=C(C)Cn1c(=O)nc(N)c2c(-c3ccc(OC)cc3)csc21 the result was 4.545%. O=C(COCC(=O)N(c1ccccc1)c1ccccc1)N1CCCC1 gave 8.421%. COCCC(=O)N1CC[C@H]2O[C@@H](C)C[C@H]2C1 read 2.985%. With Cn1ccc(CN2CCC(OCCc3ccccc3)CC2)cc1=O the screen gave 13.36%.

For CC(=O)N[C@@H]1CN(Cc2ccccc2-n2cccn2)C[C@H]1C(C)C the result was 4.935%. Result for Cc1nonc1CN(C)c1nc(-c2cccnc2)nc2c1CCNC2 was 13.97%. O=C(c1cnccn1)N1CCn2cnc(COCC3CC3)c2C1 gave 0.7092%. CN(C)C(C(=O)NCC1(O)CCCCC1)c1c(F)cccc1F (centres unmarked) read 12.57%.

Result for Cc1csc(NC(=O)C(C)Oc2ccc3c(c2)OCO3)n1 (centres unmarked) was -3.722%. Result for Cc1noc2ncc(C(=O)NCC3CCCOC3)cc12 (centres unmarked) was 11.58%. CCOCC1CN(Cc2ccco2)Cc2ccnn2C1 (centres unmarked) gave 5.155%. CC(C)c1nn(C)cc1CNCc1cccc(N(C)C)c1 read 8.101%.

Result for COC(C)c1noc(CN(C)c2ncccn2)n1 (centres unmarked) was 1.465%. With COCCn1ccnc1C1CCCN(C(=O)c2cccnc2SC)C1 (centres unmarked) the screen gave 1.075%. For COc1ccc(CN2CCn3c(CNS(C)(=O)=O)nnc3C2)cc1 the result was 4.377%. Result for COc1ccc(CN2CCn3cc(CNC(=O)CC4CC4)nc3C2)cc1 was 18.73%.

With Cc1cccc(C2CCCN(C(=O)CN3C(=O)CCNC3=O)C2)c1 (centres unmarked) the screen gave 18.82%. O=C1COC2(CCN(CC3CC3)CC2)CN1c1ccsc1 gave 8.955%. With CCCOCCn1ncc(N2CCc3ccccc3C2)cc1=O the screen gave 17.13%. C[C@]12CCCCN(C(=O)c3ccccn3)[C@H]1CCCC(=O)N2 read 8.36%.

With CC(C)c1cc(C(=O)N2CCOC3(CCNCC3)C2)no1 the screen gave 12.89%. With Cc1nc2n(n1)CC(NCC(=O)NCCCOC(C)C)CC2 (centres unmarked) the screen gave 12.63%. With COc1ccc(-c2noc(CN3CC(n4cccn4)C3)n2)c(OC)c1 the screen gave 6.529%. Result for COC(=O)N1CCCC(NC(=O)NCc2nc(C)cs2)C1 (centres unmarked) was 11.54%.

Result for COc1cccc(-c2nc3c([nH]2)CCNC3)c1F was 7.617%. With Cc1ccc(C(=O)N2CCC3(CC2)CC(c2ccccc2)C(=O)N3)o1 (centres unmarked) the screen gave 14.81%. O=C(Nc1ccc2ncsc2c1)N1CCCN([C@H]2COC[C@@H]2O)CC1 gave 9.964%. For Cc1ccc(CCNC(=O)N2CCCC(Cc3nccn3C)C2)cn1 (centres unmarked) the result was 14.29%.

Result for Cc1csc(N2CCN(CC(=O)Nc3nncs3)CC2C)n1 (centres unmarked) was 5.397%. Result for CCOCCOCc1cccc(CNc2cncc(-n3cccn3)n2)c1 was 0.7792%. Result for CS(=O)(=O)CCn1ccc(NC(=O)Cc2cccc(Cl)c2)n1 was 14.44%. Result for CSc1nnc(CNC(=O)Nc2ccccc2Br)n1C was 14.33%.

CC(C)N1CCC(N2CCN(C3CCC3)CC2CCO)CC1 (centres unmarked) read 10.62%. CC1CCc2nc(O)c(C(=O)NCc3ccncc3)cc2C1 (centres unmarked) read 2.338%. Result for CN(C)C(=O)CN1CCC2(C1)CN(CC1CCOCC1)C2 was 10.03%. For CCCS(=O)(=O)N(C)C(=O)CCc1ccccc1 the result was 15.05%.

Data taken from ChEMBL document CHEMBL3988442, “University of Dundee, Small-Polar-MMV Screening Library” (2021).